3 molecules from paper PMC3330820 can be followed below.

By UniProt entry, the sequences of proteins in these tests, tags left out. Where a name states a change or a piece, a line headed by the entry shows the natural chain unless it says otherwise.
UniProt P98170: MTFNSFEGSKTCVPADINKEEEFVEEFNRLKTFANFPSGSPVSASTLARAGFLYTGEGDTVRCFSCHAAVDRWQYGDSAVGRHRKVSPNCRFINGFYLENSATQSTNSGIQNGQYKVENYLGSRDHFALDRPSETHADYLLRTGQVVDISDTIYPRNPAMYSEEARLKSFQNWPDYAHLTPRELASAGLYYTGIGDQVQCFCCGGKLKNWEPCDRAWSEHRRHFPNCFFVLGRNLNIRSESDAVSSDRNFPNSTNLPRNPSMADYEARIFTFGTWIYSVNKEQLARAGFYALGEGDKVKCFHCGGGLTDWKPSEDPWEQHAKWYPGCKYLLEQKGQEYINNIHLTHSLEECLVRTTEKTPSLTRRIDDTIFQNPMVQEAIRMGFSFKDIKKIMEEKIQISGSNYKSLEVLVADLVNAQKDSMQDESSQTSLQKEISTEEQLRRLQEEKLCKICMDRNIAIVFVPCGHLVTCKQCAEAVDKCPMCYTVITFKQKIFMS

Results are given in words; binding and its absence hold for the method and conditions named. Binding seen in cells or lysates may run through a third protein. Some entries that bind do so weakly or less than the wild type. For part of these data: Sequences can lack the tags named with a protein.

Test [1] concerns the target T1, GFP-RhoGDI (green fluorescent protein-tagged RhoGDI) (UniProt P52565).
T1 sequence: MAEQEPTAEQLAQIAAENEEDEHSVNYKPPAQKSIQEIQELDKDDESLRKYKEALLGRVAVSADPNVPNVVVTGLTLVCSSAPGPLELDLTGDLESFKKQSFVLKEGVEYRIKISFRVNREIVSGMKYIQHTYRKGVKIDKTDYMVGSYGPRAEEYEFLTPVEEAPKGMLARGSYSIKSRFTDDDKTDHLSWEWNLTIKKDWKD
The experiment in a line: co-IP; XIAP-/- HCT116 cells expressing GFP-RhoGDI with HA-XIAP constructs; immunoprecipitated with anti-GFP antibody-conjugated agarose beads, blotted for XIAP / HA.

For test [2], the target named is X-linked inhibitor of apoptosis protein (XIAP), endogenous (human (endogenous in HCT116)) (UniProt P98170). The experiment in a line: co-IP; lysates of WT and XIAP-/- HCT116 cells immunoprecipitated with anti-XIAP (mouse) antibody or normal mouse IgG, blotted with anti-RhoGDI (rabbit); lysis buffer 1% Triton X-100, 150 mM NaCl, 10 mM Tris pH 7.4, 0.5% NP-40; 4°C.

In the case of “HA-XIAP (full-length, HA-tagged XIAP) (from UniProt P98170 1-497)”, the binding result in test [1] is “binds”.

Consider “HA-XIAP H467A (from UniProt P98170 1-497)”, for which the binding entry in test [1] is listed as “binds”.

B1: RhoGDI, endogenous (protein, UniProt P52565 1-204)
chain: MAEQEPTAEQLAQIAAENEEDEHSVNYKPPAQKSIQEIQELDKDDESLRKYKEALLGRVAVSADPNVPNVVVTGLTLVCSSAPGPLELDLTGDLESFKKQSFVLKEGVEYRIKISFRVNREIVSGMKYIQHTYRKGVKIDKTDYMVGSYGPRAEEYEFLTPVEEAPKGMLARGSYSIKSRFTDDDKTDHLSWEWNLTIKKDWKD
For B1, in test [2], the binding result is “binds”.
